{"sequences": {"note": "By UniProt entry, the sequences of proteins in these tests, tags left out. Residues count along the entry.", "UniProt Q07011, residues 24-255": "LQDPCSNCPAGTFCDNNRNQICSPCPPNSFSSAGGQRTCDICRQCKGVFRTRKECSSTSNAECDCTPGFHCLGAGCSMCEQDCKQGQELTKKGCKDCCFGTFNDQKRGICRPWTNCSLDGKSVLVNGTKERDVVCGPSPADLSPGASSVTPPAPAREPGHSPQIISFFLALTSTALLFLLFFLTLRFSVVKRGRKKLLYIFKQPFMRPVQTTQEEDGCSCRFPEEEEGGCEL"}, "source": "paper PMC10866537", "binders": {"B1": {"name": "mouse 4-1BB–Fc protein (Fc fusion, UniProt P20334 24-187)", "chain": "VQNSCDNCQPGTFCRKYNPVCKSCPPSTFSSIGGQPNCNICRVCAGYFRFKKFCSSTHNAECECIEGFHCLGPQCTRCEKDCRPGQELTKQGCKTCSLGTFNDQNGTGVCRPWTNCSLDGRSVLKTGTTEKDVVCGPPVVSFSPSTTISVTPEGGPGGHSLQVL"}, "B2": {"name": "human siglec-4–Fc protein (Fc fusion, UniProt P20916 20-516)", "chain": "GHWGAWMPSSISAFEGTCVSIPCRFDFPDELRPAVVHGVWYFNSPYPKNYPPVVFKSRTQVVHESFQGRSRLLGDLGLRNCTLLLSNVSPELGGKYYFRGDLGGYNQYTFSEHSVLDIVNTPNIVVPPEVVAGTEVEVSCMVPDNCPELRPELSWLGHEGLGEPAVLGRLREDEGTWVQVSLLHFVPTREANGHRLGCQASFPNTTLQFEGYASMDVKYPPVIVEMNSSVEAIEGSHVSLLCGADSNPPPLLTWMRDGTVLREAVAESLLLELEEVTPAEDGVYACLAENAYGQDNRTVGLSVMYAPWKPTVNGTMVAVEGETVSILCSTQSNPDPILTIFKEKQILSTVIYESELQLELPAVSPEDDGEYWCVAENQYGQRATAFNLSVEFAPVLLLESHCAAARDTVQCLCVVKSNPEPSVAFELPSRNVTVNESEREFVYSERSGLVLTSILTLRGQAQAPPRVICTARNLYGAKSLELPFQGAHRLMWAKIGP"}}, "key": {"[1]": {"molecular_target": "T1, mouse siglec-4 expressed in HEK293 cells (mouse) (UniProt P20917)", "T1 sequence": "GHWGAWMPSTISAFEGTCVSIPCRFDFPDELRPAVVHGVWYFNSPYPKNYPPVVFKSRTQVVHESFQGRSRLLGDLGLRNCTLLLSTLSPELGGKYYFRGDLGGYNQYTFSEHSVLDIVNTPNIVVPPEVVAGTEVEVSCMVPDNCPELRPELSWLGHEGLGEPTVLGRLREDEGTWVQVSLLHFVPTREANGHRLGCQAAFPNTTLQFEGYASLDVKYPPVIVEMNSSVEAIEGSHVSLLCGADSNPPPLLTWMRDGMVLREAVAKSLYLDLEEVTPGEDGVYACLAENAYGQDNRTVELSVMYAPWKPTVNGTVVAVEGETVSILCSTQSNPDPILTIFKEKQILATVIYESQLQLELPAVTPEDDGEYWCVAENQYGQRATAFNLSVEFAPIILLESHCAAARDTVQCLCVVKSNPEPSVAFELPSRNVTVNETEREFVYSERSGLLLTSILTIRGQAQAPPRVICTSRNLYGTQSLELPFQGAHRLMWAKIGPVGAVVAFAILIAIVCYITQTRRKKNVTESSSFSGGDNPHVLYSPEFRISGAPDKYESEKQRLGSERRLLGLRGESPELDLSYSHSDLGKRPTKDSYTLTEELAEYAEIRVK", "test": "flow cytometry on cells; 1 μg m4-1BB–Fc on transfected HEK293 cells, AF647 anti-human IgG; only the binder purified"}, "[2]": {"molecular_target": "4-1BB on activated primary human T cells (human (endogenous in primary T cells)) (UniProt Q07011)", "test": "flow cytometry on cells; competition: 0.4 μM siglec-4–Fc preincubated with 0.4 to 10 μM soluble 4-1BB–HIS at RT 30 min, then on activated T cells on ice 30 min; AF647 anti-human IgG; only the binder purified"}, "[3]": {"molecular_target": "4-1BB on activated primary human T cells (human (endogenous in primary T cells)) (UniProt Q07011)", "test": "flow cytometry on cells; siglec-4–Fc on resting or anti-CD3/CD28-activated primary human T cells after Fc Block; AF647 anti-human IgG; also after 4-1BB or nonspecific siRNA; only the binder purified"}}, "note": "Results are given in words; binding and its absence hold for the method and conditions named. Some results given as binding are weak or reduced against the parent protein; the word gives no strength. Where a sequence is shown, tags or fusion partners need not be part of it.", "data": [{"binder": "B1", "values": [{"measurement": "binding", "setting": "[1]", "value": "binds"}]}, {"binder": "B2", "values": [{"measurement": "binding", "setting": "[2]", "value": "binds"}, {"measurement": "binding", "setting": "[3]", "value": "binds"}]}]}
